Assay results reported in the SangsterLogP compilation.

Assay: method code SF, from Hansch, C. & Leo, A. (1987). Log P database [Dataset]. Pomona College Medicinal Chemistry Project.

Compound	logP
C[C@@H]1C[C@H]2[C@@H]3C[C@H](F)C4=CC(=O)C=C[C@]4(C)[C@@]3(F)[C@@H](O)C[C@]2(C)[C@@]1(O)C(=O)CO	1.94
O=C(Nc1ccccc1)c1ccccc1	2.62
